The target in assay [1] is translation elongation factor eEF1A1 (isoform 1 of eEF1A) (human (endogenous in MDA-MB231)) (UniProt P68104). The experiment in a line: co-IP; extracts of unstressed or heat-shocked (43°C) MDA-MB231 cells; nonidet lysis buffer (25 mM Hepes pH 7.9, 100 mM NaCl, 5 mM EDTA, 0.5% NP40); 1 mg pre-cleared protein IPed overnight at 4°C with 5 ug anti-eEF1A1 or IgG, Dynabeads protein G, five washes in B150; immunoblot.

The chains behind the UniProt entries cited, without tags or fusion partners. Where a name states a change or a piece, a line headed by the entry shows the natural chain unless it says otherwise.
UniProt P68104: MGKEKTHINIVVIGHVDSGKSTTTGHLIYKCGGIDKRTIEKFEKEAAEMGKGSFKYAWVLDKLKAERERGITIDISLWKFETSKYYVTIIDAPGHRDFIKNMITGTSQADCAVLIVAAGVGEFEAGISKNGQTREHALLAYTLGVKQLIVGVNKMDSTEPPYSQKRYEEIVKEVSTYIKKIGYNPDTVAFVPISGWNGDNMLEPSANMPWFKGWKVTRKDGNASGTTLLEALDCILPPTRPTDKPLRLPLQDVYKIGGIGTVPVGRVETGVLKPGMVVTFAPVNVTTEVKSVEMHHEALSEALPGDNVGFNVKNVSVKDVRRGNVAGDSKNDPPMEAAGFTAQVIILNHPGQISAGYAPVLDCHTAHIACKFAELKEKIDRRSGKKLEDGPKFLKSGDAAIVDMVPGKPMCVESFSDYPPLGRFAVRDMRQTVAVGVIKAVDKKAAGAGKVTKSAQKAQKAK
UniProt Q00613: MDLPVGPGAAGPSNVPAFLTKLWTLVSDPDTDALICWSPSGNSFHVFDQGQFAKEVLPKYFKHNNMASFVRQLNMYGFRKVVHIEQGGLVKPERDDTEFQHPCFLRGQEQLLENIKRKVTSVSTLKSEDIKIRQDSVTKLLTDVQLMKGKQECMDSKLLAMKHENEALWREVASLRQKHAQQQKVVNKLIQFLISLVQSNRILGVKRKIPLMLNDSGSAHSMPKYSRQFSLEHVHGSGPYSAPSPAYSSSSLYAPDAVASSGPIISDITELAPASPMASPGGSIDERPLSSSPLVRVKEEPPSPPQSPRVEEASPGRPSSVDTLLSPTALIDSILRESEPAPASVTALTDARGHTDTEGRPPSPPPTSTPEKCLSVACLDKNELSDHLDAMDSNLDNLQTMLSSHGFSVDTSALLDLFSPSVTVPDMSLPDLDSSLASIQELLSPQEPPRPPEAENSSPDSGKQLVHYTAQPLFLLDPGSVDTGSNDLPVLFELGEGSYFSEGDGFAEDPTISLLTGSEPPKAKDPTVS
UniProt P12270: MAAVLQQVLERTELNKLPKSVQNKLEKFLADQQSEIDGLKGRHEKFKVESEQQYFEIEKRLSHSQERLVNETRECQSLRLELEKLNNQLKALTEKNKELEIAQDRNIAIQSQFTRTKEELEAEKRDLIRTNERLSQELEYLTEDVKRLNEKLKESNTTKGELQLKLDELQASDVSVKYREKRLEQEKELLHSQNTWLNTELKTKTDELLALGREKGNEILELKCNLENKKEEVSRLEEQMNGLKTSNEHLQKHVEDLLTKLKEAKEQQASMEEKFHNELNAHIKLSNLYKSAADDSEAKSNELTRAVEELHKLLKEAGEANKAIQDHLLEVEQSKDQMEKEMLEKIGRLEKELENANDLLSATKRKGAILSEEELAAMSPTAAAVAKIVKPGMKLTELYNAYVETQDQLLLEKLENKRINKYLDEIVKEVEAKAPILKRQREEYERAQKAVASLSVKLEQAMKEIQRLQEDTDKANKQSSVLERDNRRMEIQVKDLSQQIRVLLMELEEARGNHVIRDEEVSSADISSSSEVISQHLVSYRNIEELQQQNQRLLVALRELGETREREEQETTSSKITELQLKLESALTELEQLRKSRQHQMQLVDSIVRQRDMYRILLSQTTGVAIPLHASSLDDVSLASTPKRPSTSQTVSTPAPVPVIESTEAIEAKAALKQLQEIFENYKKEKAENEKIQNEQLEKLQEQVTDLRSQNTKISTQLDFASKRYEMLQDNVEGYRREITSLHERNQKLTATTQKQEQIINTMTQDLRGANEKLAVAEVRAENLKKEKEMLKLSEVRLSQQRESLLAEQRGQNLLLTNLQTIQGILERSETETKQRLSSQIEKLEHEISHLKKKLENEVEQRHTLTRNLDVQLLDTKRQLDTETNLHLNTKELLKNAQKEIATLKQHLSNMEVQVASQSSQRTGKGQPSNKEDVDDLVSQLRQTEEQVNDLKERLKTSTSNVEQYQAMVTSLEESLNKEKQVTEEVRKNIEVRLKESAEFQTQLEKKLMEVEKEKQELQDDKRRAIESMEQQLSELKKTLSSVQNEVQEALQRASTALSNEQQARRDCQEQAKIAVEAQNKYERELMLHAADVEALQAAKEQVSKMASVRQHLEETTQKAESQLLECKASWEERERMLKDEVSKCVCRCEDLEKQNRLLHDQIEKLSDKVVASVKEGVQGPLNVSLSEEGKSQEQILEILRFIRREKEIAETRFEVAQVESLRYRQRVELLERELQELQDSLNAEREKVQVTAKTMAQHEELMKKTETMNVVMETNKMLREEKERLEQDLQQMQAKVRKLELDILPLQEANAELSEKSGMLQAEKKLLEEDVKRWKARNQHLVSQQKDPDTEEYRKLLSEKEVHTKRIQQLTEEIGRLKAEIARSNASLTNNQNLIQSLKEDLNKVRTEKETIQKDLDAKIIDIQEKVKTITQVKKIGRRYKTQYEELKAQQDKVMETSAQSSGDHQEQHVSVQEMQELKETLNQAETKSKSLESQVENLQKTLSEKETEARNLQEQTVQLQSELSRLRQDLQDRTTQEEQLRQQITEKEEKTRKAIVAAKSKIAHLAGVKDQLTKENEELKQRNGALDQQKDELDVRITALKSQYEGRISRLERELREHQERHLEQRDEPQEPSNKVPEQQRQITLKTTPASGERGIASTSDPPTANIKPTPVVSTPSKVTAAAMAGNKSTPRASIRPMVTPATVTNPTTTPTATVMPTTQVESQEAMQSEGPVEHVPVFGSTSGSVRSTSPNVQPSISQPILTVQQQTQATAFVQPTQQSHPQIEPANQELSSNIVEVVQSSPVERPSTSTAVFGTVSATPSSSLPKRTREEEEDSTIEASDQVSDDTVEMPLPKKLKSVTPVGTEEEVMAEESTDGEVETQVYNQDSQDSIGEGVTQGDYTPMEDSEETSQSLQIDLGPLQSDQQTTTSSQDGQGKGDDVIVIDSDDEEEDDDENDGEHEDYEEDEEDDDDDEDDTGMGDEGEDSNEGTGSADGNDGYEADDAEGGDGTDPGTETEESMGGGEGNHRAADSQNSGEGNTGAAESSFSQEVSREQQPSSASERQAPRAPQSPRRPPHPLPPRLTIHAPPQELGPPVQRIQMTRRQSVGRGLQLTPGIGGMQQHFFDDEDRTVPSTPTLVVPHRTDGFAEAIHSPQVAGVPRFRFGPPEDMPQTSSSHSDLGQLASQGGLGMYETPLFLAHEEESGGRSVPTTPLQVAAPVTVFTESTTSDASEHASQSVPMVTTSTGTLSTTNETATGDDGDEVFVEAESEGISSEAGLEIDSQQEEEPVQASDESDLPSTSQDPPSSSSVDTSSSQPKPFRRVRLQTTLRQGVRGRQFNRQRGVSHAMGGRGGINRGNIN

In assay [2] the target is heat shock factor 1 (HSF1) (human (endogenous in MDA-MB231)) (UniProt Q00613). The assay is described as follows: native gel or EMSA; super-shift of the HSF1-HSE EMSA by anti-eEF1A1 antibody; extracts of MDA-MB231 cells heat-shocked 20 min at 43°C or treated with arsenite; 10 ug extract incubated with 1 ug antibody for 1 hr before radiolabelled HSE; IgG as mock. In general terms: Mobility shift assays separate free from complexed probe on a gel.

The target is the same in assay [3]. The experiment in a line: co-IP; extracts of unstressed or heat-shocked MDA-MB231 cells IPed with HSF1 antibody or IgG; SDS-PAGE and immunoblotting. A general note: In western blotting, separated proteins are transferred to a membrane and probed.

No constants are given. Whether binding was seen depends on the method and setting. For some of these results: Binding seen in cells or lysates may run through a third protein. Some results given as binding are weak or reduced against the parent protein; the word gives no strength.

For “heat shock factor 1 (HSF1) (from UniProt Q00613-1 1-529)”, in assay [1], the binding result is reported as “binds”. Take “nuclear pore complex (NPC) protein TPR1 (from UniProt P12270 1-2363)”: in assay [1], the binding result was “binds”.

As to “translation elongation factor eEF1A1 (isoform 1 of eEF1A) (from UniProt P68104 1-462)”, the binding result in assay [2] and in assay [3] was “binds” throughout.

(Values after paper PMC4164936, “The translation elongation factor eEF1A1 couples transcription to translation during heat shock response”.)
